Measurements reported in PubChem BioAssay AID652259 (Drosophila RNAi Screening Center, 2013).

- Purpose: 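Knock-downs that push a Wingless-driven reporter up or down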 (primary screen)
- Cell system: Drosophila clone 8 imaginal disc epithelial cells
- Reagent: long dsRNA against Drosophila genes
- Conditions: pathway stimulated by co-transfected Wingless expression plasmid
- Measurement: 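Firefly luciferase from a tcf-site Wingless reporter, measured alongside co-transfected Renilla luciferase that tracks transfection; pathway stimulated by a Wingless plasmid; the firefly-to-Renilla ratio is not deposited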
- Scale: firefly reporter light: higher = more Wg reporter light, before normalisation; Renilla control light: higher = more transfected or surviving cells
- Hit rule: 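Strong candidates differ from their plate mean by at least two out of four per-plate statistical tests; weak candidates meet just one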
- Calls: active = candidate regulator (raises or lowers reporter); inactive = not a candidate
The screen tested about 22,000 reagents; below is a random part of those with a known target gene and a result. Over the whole deposit, 233 (1.1%) were called active. 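Light values are raw, unnormalised plate reads; the ratio scores behind the reporter calls were not deposited.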 A number with no mark means an inactive call. Reagents against one gene are numbered here. Names joined by + are all predicted targets of the reagent. Not given: the amount of reagent, the time to read-out, the dose of the treatment.

gene | dsRNA no. | reporter change call, replicate 1 | firefly reporter light, replicate 1 | firefly reporter light, replicate 2 | Renilla control light, replicate 1 | Renilla control light, replicate 2
Tsp3A (Tetraspanin 3A) | 1 | – | 18341 | – | 14625 | –
Ktl (Kctd12-like) | 1 | – | 2880 | 5596 | 1287 | 1616
CG3860 | 1 | – | 9269 | – | 3546 | –
ecd (ecdysoneless) | 1 | – | 13936 | – | 3403 | –
CG9951 | 1 | – | 7171 | – | 2147 | –
mRpL16 (mitochondrial ribosomal protein L16) | 1 | – | 4729 | 9116 | 2560 | 4279
ATPsynB (ATP synthase, subunit B) | 1 | – | 7206 | – | 2470 | –
Ttc7 (Tetratricopeptide repeat domain 7) | 1 | – | 9107 | – | 3133 | –
CG8945 | 1 | – | 18216 | – | 8169 | –
CG8945 | 2 | – | 23545 | – | 7990 | –
Ccdc58 + CG34116 | 1 | – | 10113 | – | 3882 | –
CG13113 | 1 | – | 2739 | 7656 | 1328 | 3609
CG14573 | 1 | – | 12763 | – | 4774 | –
SmydA-7 (SET and MYND domain containing, arthropod-specific, member 7) | 1 | – | 13281 | – | 3803 | –
SmydA-9 (SET and MYND domain containing, arthropod-specific, member 9) | 1 | – | 21435 | – | 7688 | –
Sec22 + CG13358 | 1 | – | 3156 | 9323 | 617 | 1457
CG16736 | 1 | – | 15675 | – | 4064 | –
Mst89B | 1 | – | 18603 | – | 4413 | –
CG5071 | 1 | – | 23336 | – | 24448 | –
CG5071 | 2 | – | 8.07e5 | 8.32e5 | 3.91e5 | 2.44e5
CG14262 | 1 | – | 5906 | – | 4531 | –
PIG-Wb (Phosphatidylinositol glycan anchor biosynthesis class W b) | 1 | – | 6676 | – | 2614 | –
Cyp4d14 (Cytochrome P450 4d14) | 1 | – | 20797 | – | 15371 | –
GCS2beta (Glucosidase 2 beta subunit) | 1 | – | 3404 | – | 390 | –
Vps50 (Vacuolar protein sorting 50) | 1 | – | 14116 | – | 3872 | –
CG10164 | 1 | – | 3931 | – | 772 | –
CG9396 | 1 | – | 11747 | – | 2331 | –
CG5535 | 1 | – | 3155 | – | 1029 | –
CRMP (Collapsin Response Mediator Protein) | 1 | – | 3957 | – | 1532 | –
CRMP (Collapsin Response Mediator Protein) | 2 | – | 6821 | – | 2289 | –
lncRNA:CR43409 (long non-coding RNA:CR43409) | 1 | – | 15372 | – | 8325 | –
CG32982 | 1 | – | 13994 | – | 6720 | –
CG32982 | 2 | – | 4614 | 6801 | 1424 | 4272
CG32982 | 3 | – | 3276 | 8819 | 1082 | 4448
CG32982 | 4 | – | 3053 | 5398 | 1185 | 2320
CG32982 | 5 | – | 4.23e5 | 4.73e5 | 1.65e5 | 1.79e5
CG4239 | 1 | – | 2908 | 8489 | 787 | 2016
CG8141 | 1 | – | 14227 | – | 2481 | –
CG17821 | 1 | – | 5442 | – | 1925 | –
Pal2 (Peptidyl-alpha-hydroxyglycine-alpha-amidating lyase 2) | 1 | – | 2770 | 4464 | 759 | 2141
Glut4EF (Glucose transporter 4 enhancer factor) | 1 | Wg reporter activity raised (active) | 23357 | – | 2566 | –
Glut4EF (Glucose transporter 4 enhancer factor) | 2 | – | 17852 | – | 4733 | –
Glut4EF (Glucose transporter 4 enhancer factor) | 3 | – | 16659 | – | 3920 | –
Glut4EF (Glucose transporter 4 enhancer factor) | 4 | – | 17113 | – | 4089 | –
Glut4EF (Glucose transporter 4 enhancer factor) | 5 | – | 19611 | – | 4625 | –
CG13564 | 1 | – | 2218 | 5572 | 485 | 1949
lncRNA:CR43435 (long non-coding RNA:CR43435) | 1 | – | 5298 | – | 1831 | –
ReepA (Receptor expression enhancing protein A) | 1 | – | 7894 | – | 1955 | –
ReepA (Receptor expression enhancing protein A) | 2 | – | 5.83e5 | 5.74e5 | 1.99e5 | 1.62e5
